Amino acid sequences for entries named in this document (tags omitted).
UniProt Q9UIV1: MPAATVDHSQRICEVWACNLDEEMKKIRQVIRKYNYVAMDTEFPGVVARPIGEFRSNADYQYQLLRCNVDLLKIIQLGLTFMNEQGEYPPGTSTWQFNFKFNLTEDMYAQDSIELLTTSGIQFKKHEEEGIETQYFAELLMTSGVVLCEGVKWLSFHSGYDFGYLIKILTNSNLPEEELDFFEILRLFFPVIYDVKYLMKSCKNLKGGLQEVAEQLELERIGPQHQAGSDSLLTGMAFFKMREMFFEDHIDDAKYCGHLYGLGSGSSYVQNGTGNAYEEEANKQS
UniProt P19474: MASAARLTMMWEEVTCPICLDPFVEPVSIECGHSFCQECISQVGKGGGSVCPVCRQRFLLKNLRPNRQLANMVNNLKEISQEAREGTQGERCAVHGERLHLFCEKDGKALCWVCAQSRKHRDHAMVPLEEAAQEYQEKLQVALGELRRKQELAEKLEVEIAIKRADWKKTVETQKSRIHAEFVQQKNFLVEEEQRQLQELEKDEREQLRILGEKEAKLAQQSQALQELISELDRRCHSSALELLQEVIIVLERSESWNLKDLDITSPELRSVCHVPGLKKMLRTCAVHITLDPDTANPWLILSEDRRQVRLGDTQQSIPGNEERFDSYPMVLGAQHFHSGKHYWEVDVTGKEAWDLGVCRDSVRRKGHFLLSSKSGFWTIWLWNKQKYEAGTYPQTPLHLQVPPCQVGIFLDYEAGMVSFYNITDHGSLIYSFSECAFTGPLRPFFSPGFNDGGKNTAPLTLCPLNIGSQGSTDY
UniProt P12956: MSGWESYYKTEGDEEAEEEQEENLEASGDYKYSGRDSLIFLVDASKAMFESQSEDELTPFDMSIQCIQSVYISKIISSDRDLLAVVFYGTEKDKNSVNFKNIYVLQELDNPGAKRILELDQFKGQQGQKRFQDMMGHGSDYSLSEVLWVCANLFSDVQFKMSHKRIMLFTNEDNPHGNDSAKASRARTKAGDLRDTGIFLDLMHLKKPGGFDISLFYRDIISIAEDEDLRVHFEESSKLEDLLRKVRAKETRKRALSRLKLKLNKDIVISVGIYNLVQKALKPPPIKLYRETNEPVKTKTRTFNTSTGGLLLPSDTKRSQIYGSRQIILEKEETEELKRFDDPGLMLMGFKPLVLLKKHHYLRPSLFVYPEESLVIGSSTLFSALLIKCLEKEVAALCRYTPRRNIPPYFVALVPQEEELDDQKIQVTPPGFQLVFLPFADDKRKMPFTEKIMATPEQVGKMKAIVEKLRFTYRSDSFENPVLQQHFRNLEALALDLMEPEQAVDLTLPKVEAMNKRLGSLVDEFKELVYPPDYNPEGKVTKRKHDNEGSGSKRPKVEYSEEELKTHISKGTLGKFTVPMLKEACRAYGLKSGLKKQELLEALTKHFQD
UniProt Q13263: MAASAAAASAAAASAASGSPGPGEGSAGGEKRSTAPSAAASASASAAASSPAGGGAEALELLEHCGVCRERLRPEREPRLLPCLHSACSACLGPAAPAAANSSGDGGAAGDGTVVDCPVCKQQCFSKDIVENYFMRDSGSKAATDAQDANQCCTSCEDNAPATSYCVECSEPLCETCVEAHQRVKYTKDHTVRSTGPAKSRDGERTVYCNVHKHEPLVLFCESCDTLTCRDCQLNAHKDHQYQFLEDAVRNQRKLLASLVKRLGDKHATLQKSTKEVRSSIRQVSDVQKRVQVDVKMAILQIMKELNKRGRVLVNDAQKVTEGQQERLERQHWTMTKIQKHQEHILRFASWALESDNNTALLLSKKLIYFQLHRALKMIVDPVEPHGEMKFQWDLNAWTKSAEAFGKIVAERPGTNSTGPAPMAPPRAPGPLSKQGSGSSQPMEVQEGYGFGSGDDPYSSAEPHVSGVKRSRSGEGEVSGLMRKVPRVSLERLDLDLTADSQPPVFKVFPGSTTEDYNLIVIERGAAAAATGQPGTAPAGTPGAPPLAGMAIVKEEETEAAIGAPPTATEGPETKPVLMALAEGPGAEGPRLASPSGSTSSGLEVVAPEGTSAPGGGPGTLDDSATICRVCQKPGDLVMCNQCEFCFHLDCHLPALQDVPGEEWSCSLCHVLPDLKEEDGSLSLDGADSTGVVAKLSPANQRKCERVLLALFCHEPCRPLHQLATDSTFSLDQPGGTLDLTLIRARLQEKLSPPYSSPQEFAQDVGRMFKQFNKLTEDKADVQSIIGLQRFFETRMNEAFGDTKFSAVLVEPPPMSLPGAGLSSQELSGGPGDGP

According to publication PMC12623751:

biological target: CCR4-NOT transcription complex subunit 7 (CNOT7) (human (endogenous in HCT116 and SW480)) (UniProt Q9UIV1); assay: affinity purification with mass spectrometry; HCT116 lysate immunoprecipitated with IgG or CNOT7 antibody; gel strips digested, LC-MS/MS (Q Exactive Plus)

binding, binds:
Tripartite motif containing 21 (TRIM21) (from UniProt P19474 1-475), X-ray repair cross complementing 6 (XRCC6) (from UniProt P12956 1-609), TRIM28 (from UniProt Q13263 1-835)

These are yes or no findings as the source states them, for the method shown. In cells and extracts the contact can be indirect. These calls come from enrichment with a bait or labelling near it, and not all partners need be listed.
